# According to PubChem BioAssay AID504467 (National Center for Advancing Translational Sciences (NCATS), 2011):
# Several values for one entry are separate records, joined by “and”; a condition that tells them apart may be missing. Identical values can stand only once. Among all 330,000 compounds or so, about 7,700 (2.3%) were called active. This list was built around the results that the source calls inconclusive (neither active nor inactive); the mix of calls is not that of the screen. Calls follow the shape of the dose curve; as a rule, active = well fitted inhibition curve with a large enough effect; inconclusive = small, poorly fitted or top-dose-only effect, or effect the other way; inactive = flat fitted curve, though single readings scatter. Potencies beside an inconclusive call are fits to weak or partial responses and may not hold up.
# Assay: qHTS screen for small molecules that inhibit ELG1-dependent DNA repair in human embryonic kidney (HEK293T) cells expressing luciferase-tagged ELG1; also: nearly all actives have a fitted effect of over 55% in size
# Conditions: HEK293T ELG1-luciferase reporter, luminescence, 16 h, DNA damage induced by 5-fluorouridine; activity change, negative = inhibition: at 46.1 µM (top of the series)
# Outline: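 Quantitative HTS, concentration-response format. 2,000 cells/well co-treated with 5-fluorouridine and compound, 16 hr in 5% CO2 at 37 °C; ONE-Glo luminescence read after 30 min.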
# % is scaled to controls: 0 for no effect and ±100 for the full control effect; potency is read from the fitted curve at half-maximal effect.
SMILES,Potency,"activity change, negative = inhibition"
Cc1nn(C)c2ncc(C(N)=O)c(Oc3ccc(Cl)cc3)c12,"inconclusive: 13 µM [inhibitor, partial curve, poor fit]",
O=C(COc1cccnc1[N+](=O)[O-])Nc1ccc(F)cc1,"inconclusive: 18.3 µM [activator, single point]",
COCc1nc2ccccc2n1Cc1c(F)cccc1Cl,,inactive: 1.36%
Cc1ccc(S(=O)(=O)NCCCNS(=O)(=O)c2ccc(C)cc2)cc1,"inconclusive: 11.2 µM [inhibitor, partial curve, poor fit]",
CCN(CC)c1ccc(N=Cc2ccccc2[N+](=O)[O-])cc1,,inactive: -3.04%
COc1cc2c(cc1OC)C1(CCCC1)C(N)=C2C#N,"inconclusive: 18.4 µM [inhibitor, partial curve]",
O=Cc1cn(CC(=O)Nc2ccc3c(c2)OCO3)c2ccccc12,"inconclusive: 8.2 µM [inhibitor, partial curve]",
COCCN(C(=O)C1CCN(C(=O)c2ccccc2C)CC1)c1c(N)n(CC(C)C)c(=O)[nH]c1=O,,inactive: 0%
N#Cc1ccc2ccn(CC(=O)NC3CCCCC3)c2c1,,inactive: -5.79%
COc1cccc2c1OCC/C2=N\NC(=O)C(C)Oc1ccc([N+](=O)[O-])cc1 (centres undefined),"inconclusive: 20.6 µM [inhibitor, single point]",
O=C(NC1CCS(=O)(=O)C1)c1ccc2c(c1)OCO2 (centres undefined),"inconclusive: 0.651 µM [activator, full curve, poor fit]",
Cc1occc1-c1nnc(SCC(=O)Nc2nc3ccccc3s2)o1,"inconclusive: 16.4 µM [activator, partial curve, poor fit]",
CCN(CC)c1ccc(S(=O)(=O)N2CCOCC2)cc1NC(=O)Nc1ccccc1,"inconclusive: 29.1 µM [inhibitor, single point]",
O=C(CSc1nnc2ccccn12)c1ccc(Cl)cc1,"inconclusive: 3.66 µM [activator, single point]",
CCOC(=O)c1ccc(NS(=O)(=O)c2ccc3c(c2)n(C)c(=O)n3C)cc1,"inconclusive: 2.59 µM [inhibitor, full curve, poor fit]",
O=c1/c(=C/c2ccc(O)cc2)sc2nc3cc(Br)cnc3n12,"inconclusive: 10.3 µM [activator, partial curve]",
CN1CCOc2cc(S(=O)(=O)Nc3ccc(F)cc3)ccc21,,inactive: -16.2%
CCOc1ccc(C(=O)NC(=S)Nc2cc(C)ccn2)cc1[N+](=O)[O-],,inactive: -0.712%
Cc1ccc(NC(=O)COC(=O)CNC(=O)c2ccc(Cl)cc2Cl)cc1S(=O)(=O)N1CCOCC1,"inconclusive: 5.8 µM [activator, single point]",
COc1ccc(S(=O)(=O)N2CCCC(C(=O)NCC3CCCO3)C2)cc1C (centres undefined),,inactive: 1.47%
Cc1cc(NC(=O)c2ccc(F)cc2)n(-c2ccccn2)n1,,inactive: 9.24%
Cc1cccc(NC(=O)CN2C(=O)S/C(=C\c3ccc(O)c([N+](=O)[O-])c3)C2=O)c1,,inactive: -13.8%

SMILES,Potency,"activity change, negative = inhibition"
Cc1ccccc1CNS(=O)(=O)c1ccc2c(c1)C(C)(C)C(=O)N2C,"inconclusive: 9.2 µM [activator, partial curve, poor fit]",
CCOC(=O)C1=C(COC(=O)/C=C/c2ccc(OCC)c(OC)c2)NC(=O)NC1C (centres undefined),"inconclusive: 16.4 µM [inhibitor, single point]",
Cc1ccc(S(=O)(=O)Nc2cccnc2)c(C)c1C,,inactive: -14.7%
CCOC(=O)C1C(C(=O)OC)=C(c2ccc(OC)cc2)c2ccccc2N1S(=O)(=O)C(F)(F)F (centres undefined),active: 11.6 µM,
Cc1cccc(NC2=C(NCCO)C(=O)c3ccccc3C2=O)c1,,inactive: 13.3%
CCC(=O)c1ccc(OCC(O)Cn2nc(C)c(C(C)=O)c2C)cc1 (centres undefined),"inconclusive: 20.6 µM [inhibitor, single point]",
CC(=O)N(Cc1ccc(F)cc1)c1cccc(C)c1C,,inactive: 0.186%
Cc1ccc(C(=O)NC2CCCCCCC2)c(Cl)c1,"inconclusive: 0.447 µM [activator, full curve, poor fit]",
Cc1nc2ccccc2n1CC(O)Cn1c(C(F)(F)F)nc2ccccc21 (centres undefined),"inconclusive: 10.3 µM [inhibitor, partial curve, poor fit]",
O=[N+]([O-])c1ccc2nc(-c3ccccc3)oc2c1,"inconclusive: 20.6 µM [activator, partial curve]",
CCOc1ccccc1NC(=O)c1ccc(S(=O)(=O)N(C)c2ccccc2)cc1,,inactive: 0.107%
COc1ccccc1CNC(=O)[C@H](C)NC(=O)C1CCN(C(=O)[C@@H](N)Cc2ccccc2)CC1,"inconclusive: 0.259 µM [inhibitor, single point]",
CCO[C@H]1OC(C(=O)N2CCN(C)CC2)=C[C@@H](C2CC2)[C@@H]1CCCO,,inactive: 16.1%
CN(C(=O)c1cc(COc2ccc(F)c(F)c2)on1)C1CCOC1 (centres undefined),,inactive: 24.8%
COCC(=O)N1CCC(n2nccc2NC(=O)CCOc2ccccc2)CC1,"inconclusive: 29.1 µM [activator, partial curve, poor fit]",
O=C(Cn1cnc2ccccc2c1=O)c1ccc(Cl)cc1,"inconclusive: 23.1 µM [activator, partial curve]",
COc1ccccc1CNC(=S)NCCc1ccccc1,"inconclusive: 18.4 µM [activator, single point]",
O=C(Nc1cccc2nsnc12)c1cccs1,"inconclusive: 3.55 µM [inhibitor, single point] and inconclusive: 7.31 µM [activator, partial curve]",
Cc1ccccc1CN1C(=O)/C(=C\c2ccc(C(=O)NCCN3CCOCC3)cc2)Sc2ccccc21,"inconclusive: 23.1 µM [inhibitor, partial curve, poor fit]",
Cc1c(C(=O)N2CCCC2)oc2c1-c1nn(CC(=O)NCCCOC(C)C)cc1CC2,"inconclusive: 29.1 µM [inhibitor, single point]",
COC(=O)C(CCSC)NC(=O)CNS(=O)(=O)c1ccc(Cl)cc1 (centres undefined),"inconclusive: 3.55 µM [inhibitor, partial curve, poor fit]",
O=C(NC(=S)Nc1ccccc1N1CCCC1)c1ccccc1[N+](=O)[O-],,inactive: 2.9%
